No constants are given. Whether binding was seen depends on the method and setting. Some entries that bind do so weakly or less than the wild type.
Assays:
[1] = biological target: marmoset CD100 (marmoset); test: flow cytometry blocking assay of FIG. 1: CD100 pre-incubated with the MAb, then added to 293/Plexin cells; blocked partner Plexin B1
[2] = biological target: marmoset CD100 (marmoset); test: ELISA and flow cytometry; BIACORE
[3] = biological target: rat SEMA4D (cellular target on lysed whole blood cells of Sprague-Dawley rats) (rat); test: flow cytometry-based saturation assay on lysed whole blood of female Sprague-Dawley rats after a single intravenous injection of MAb 2503
[4] = biological target: marmoset CD100 (marmoset); test: ELISA, flow cytometry, BIACORE (Example 5)
[5] = biological target: rat SEMA4D (cellular target on lysed whole blood cells of Sprague-Dawley rats) (rat); test: flow cytometry-based saturation assay on lysed whole blood of male Sprague-Dawley rats after a single intravenous injection of MAb 2503

Measured: binding

B1: MAb 2503 (antibody, V domains shown)
VH: QVQLVQSGAEVKKPGSSVKVSCKASGYSFSDYYMHWVRQAPGQGLEWMGQINPTTGGASYNQKFKGKATITVDKSTSTAYMELSSLRSEDTAVYYCARYYYGRHFDVWGQGTTVTVSS
VL: DIVMTQSPDSLAVSLGERATINCKASQSVDYDGDSYMNWYQQKPGQPPKLLIYAASNLESGVPDRFSGSGSGTDFTLTISSLQAEDVAVYYCQQSNEDPYTFGQGTKLEIK
binds: [1] | [2] | [3] | [4] | [5]

From US20170306017A1
